# Assay results taken from PMC10059057, “Antileishmanial and Antiplasmodial Activities of Secondary Metabolites from the Root of Antrocaryon klaineanum Pierre (Anacardiaceae)” (Molecules, 2023).
# Experiments:
# [1] = system: P. falciparum chloroquine-resistant (PfDd2); test: Antiplasmodial SYBR green I based fluorescence assay, chloroquine-resistant strain; format: cell-based, Plasmodium falciparum; settings: for RI (resistance index): ratio IC50 on Dd2 / IC50 on 3D7
# Text: (§1) The cryopreserved chloroquine-sensitive (Pf3D7-(MRA-102)), the multi-resistant (PfDd2) of Plasmodium falciparum, and the promastigote form of Leishmania donovani strains were obtained from BEI Resources (https://www.beiresources.org/ (accessed on 16 February 2019)) and are routinely cultured at the Antimicrobial and Biocontrol Agents Unit, University of Yaoundé I.
# Plasmodium falciparum strains were maintained in 60 mm sterile petri dishes containing complete RPMI 1640 medium [RPMI 1640 (Sigma Aldrich) supplemented with 0.2% sodium bicarbonate (Sigma Aldrich), 0.5% Albumax II (Gibco), 1% hypoxanthine 100X (Gibco, Billings, MT, USA), 25 mM HEPES, and 0.04% gentamicin (Sigma Aldrich)] with fresh O^+ erythrocytes of healthy human volunteers suspended at 4% haematocrit (v/v) and incubated at 37 °C in a 5% CO2 humidified atmosphere. The medium was replaced daily with fresh complete medium to propagate the culture. Ten percent (10%) Giemsa-stained thin blood smears were examined microscopically under immersion oil to monitor cell-cycle transition and parasitaemia.
# (§2) A stock solution was prepared at 100 mg/mL for each extract and fraction and at 50 mg/mL for isolated compound in 100% DMSO (Sigma–Aldrich, Munich, Germany). Master plates were then prepared by mixing 2 μL of each stock solution with 198 μL of fresh incomplete RPMI 1 640 culture medium to yield a concentration of 1 mg/mL for extract and fraction and of 0.5 mg/mL (1% DMSO) followed by a 5-fold serial dilution. Extracts and fractions were tested at concentrations ranging from 0.16 to 100 μg/mL, and isolated compounds at concentrations ranging from 0.08 to 50 μg/mL.
# The use of mixed-stage cultures can enable the test molecules to interact with all the three stages (ring, trophozoite, and schizont) found during a 48-h life cycle of P. falciparum in culture. […]
# (§3) Drug sensitivity assay was carried out in 96-well microtitration plates using the SYBR green I based fluorescence assay (Smilkstein et al., 2004). […]
# (§4) The 96 wells flat-bottom assay plates with sorbitol-synchronized ring stage parasites (haematocrit: 1%, parasitaemia: 2%, 90 μL) were incubated in the presence of 10 µL of pre-diluted extracts, fractions, isolated compounds, and reference drugs [Chloroquine and Artemisinin (Sigma–Aldrich, Munich, Germany)] at different triplicate concentrations (100 µg/mL–0.16 µg/mL for extract/fractions and 50 µg/mL–0.08 µg/mL for compounds). […] Fluorescence was measured using the microplate reader Infinite M200 (Tecan) at an excitation and emission wavelength of 485 and 538 nm, respectively. […]
# The resistance index (RI) was determined as the ratio of the IC50 of the samples on the multi-resistant strain Dd2 and the IC50 on the chloroquine-sensitive strain 3D7 as reported by Douanla et al..
# [2] = system: P. falciparum chloroquine-sensitive (Pf3D7); test: Antiplasmodial SYBR green I based fluorescence assay, chloroquine-sensitive strain; format: cell-based, Plasmodium falciparum; settings: SI = CC50 (Raw cells)/IC50 (Pf3D7)
# Experimental: as §1, with “I. […]” for “I.”
# as §3, §4
# [3] = system: L. donovani promastigotes 1S (MHOM/SD/62/1S); test: Antileishmanial resazurin fluorimetric assay on promastigotes; format: cell-based, Leishmania donovani; settings: SI = CC50 (Raw cells)/IC50 (L. donovani)
# Experimental: as §1
# Leishmania donovani promastiogtes were cultured in Medium 199 (Sigma, Darmstadt, Germany) supplemented with 10% Heat-Inactivated fetal Bovine Serum (HIFBS) (Sigma, Darmstadt, Germany) and 100 IU/mL penicillin/streptomycin. The culture was maintained in 75 cm^2 cell culture flask at 28 °C and sub-cultured every 72 h.
# as §2
# The antileishmanial activity of crude extracts, derived fractions, and isolated compounds against cultured L. donovani promastigotes was evaluated using the resazurin fluorimetric assay as described by Siqueira-Neto et al. (2010). […] After an additional incubation for 44 h, plates were then read on a Magelan Infinite M200 fluorescence plate reader (Tecan, Männedorf, Switzerland) at excitation and emission wavelengths of 530 and 590 nm, respectively. For each sample, growth inhibition percentages were calculated with Microsoft Excel Software; then, from the nonlinear regression fit, concentration–response curves were generated to deduce the median inhibitory concentration (IC50) using the GraphPad Prism 8.0 software.
Structure (SMILES),RI (resistance index) [1],SI_Pf3D7 [2],SI_PfDd2 ([1]; SI = CC50 (Raw cells)/IC50 (PfDd2)),L. donovani Promastigote SI [3]
"CCCCCCCC=CCCCCCCCCCCCCCC(O)C(O)C(COC1OC(CO)C(O)C(O)C1O)NC(=O)C(O)CCCCCCCCCCCCCC [Antroklaicerebroside (1), (2S,3S,4R,2′R,18E)N-((-3,4-dihydroxy-β-D-gluco-pyranosyl)oxy)hexacos-18-en-2-yl)-2-hydroxyhexadecanamide]",>1.19,–,–,–
"O=c1ccc2cc(O)c(O)cc2o1 [Esculetin (2), 6,7-dihydroxycoumarin]",0.2,>10.97,>53.76,–
"COc1cc2ccc(=O)oc2cc1O [Scopoletin (3), 7-hydroxy-6-methoxycoumarin]",–,–,–,>78.13
"CC[C@H](/C=C/[C@@H](C)[C@H]1CC[C@H]2[C@@H]3CC=C4C[C@@H](O)CC[C@]4(C)[C@H]3CC[C@]12C)C(C)C [Stigmasterol (6), stigmasterol]",–,–,–,>54.70
"CC[C@H](CC[C@@H](C)[C@H]1CC[C@H]2[C@@H]3CC=C4C[C@@H](O)CC[C@]4(C)[C@H]3CC[C@]12C)C(C)C [β-sitosterol (5), β-sitosterol]",>1.1,>11.04,–,>89.93
